Experimental data published in paper PMC7113585.
These are yes or no findings as the source states them, for the method shown. In cells and extracts the contact can be indirect. Here binding means that the protein was enriched with, or labelled near, the bait; the list need not be complete.

Target: T1, Tp0751 (E115-P237), lipocalin fold only (Treponema pallidum subsp. pallidum) (UniProt O83732)
T1 sequence: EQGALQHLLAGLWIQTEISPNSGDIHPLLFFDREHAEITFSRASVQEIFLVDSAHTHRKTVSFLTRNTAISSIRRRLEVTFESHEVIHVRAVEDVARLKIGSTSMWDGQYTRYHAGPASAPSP
Experiment: affinity purification with mass spectrometry; His-tagged Tp0751 (E115-P237), 150 ug, immobilised on cobalt chelate; hCMEC/d3 membrane and membrane-associated proteins as prey, 16 h at 4°C, TBS with 0.5% CHAPS; eluted with 290 mM imidazole; in-solution digestion, LC-MS/MS; unconjugated column as control; only the target purified

B1: Stomatin (erythrocyte band 7 integral membrane protein), endogenous in hCMEC/d3 cells (protein, UniProt P27105 1-288)
chain: MAEKRHTRDSEAQRLPDSFKDSPSKGLGPCGWILVAFSFLFTVITFPISIWMCIKIIKEYERAIIFRLGRILQGGAKGPGLFFILPCTDSFIKVDMRTISFDIPPQEILTKDSVTISVDGVVYYRVQNATLAVANITNADSATRLLAQTTLRNVLGTKNLSQILSDREEIAHNMQSTLDDATDAWGIKVERVEIKDVKLPVQLQRAMAAEAEASREARAKVIAAEGEMNASRALKEASMVITESPAALQLRYLQTLTTIAAEKNSTIVFPLPIDMLQGIIGAKHSHLG
binding: binds
